Source: the supplement of paper PMC4604168 (melanoma cell lines)
Some of the results follow. Many values rest on one well or one pass, so single values are uncertain.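 Imaging used 1,536-well plates; nuclei positive for cleaved PARP by antibody were divided by total DNA-stained nuclei to yield the apoptosis fraction. Doses for screening kept most cells viable, and cell lines differ markedly in resting and induced cleaved-PARP levels.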

Test system: CBRC008 (line from a melanoma biopsy)
Assay: cleaved PARP positive nuclei fraction relative to DMSO control; melanoma cells; higher = more apoptosis
Conditions: library dose: low library concentration; 72 h

| Compound | cleaved PARP positive nuclei fraction |
| --- | --- |
| Cn1c(Nc2ccc(C(F)(F)F)cc2)nc2cc(Oc3ccnc(-c4ncc(C(F)(F)F)[nH]4)c3)ccc21 + NCC(=O)Nc1ccc(-n2nc(C(F)(F)F)cc2-c2ccc3c(ccc4ccccc43)c2)cc1 [OSU03012] (first compound 0.08 µM, partner dose 1 µM) | 165% |
| CO[C@@H]1[C@H](N(C)C(=O)c2ccccc2)C[C@H]2O[C@]1(C)n1c3ccccc3c3c4c(c5c6ccccc6n2c5c31)C(=O)NC4 [Midostaurin] + COc1cc2c(Oc3ccc4[nH]c(C)cc4c3F)ncnc2cc1OCCCN1CCCC1 [cediranib] (first compound 0.08 µM, partner dose 0.4 µM) | 179% |
| C=CCNC1=C2C[C@@H](C)C[C@H](OC)[C@H](O)[C@@H](C)/C=C(\C)[C@H](OC(N)=O)[C@@H](OC)/C=C\C=C(/C)C(=O)NC(=CC1=O)C2=O [Tanespimycin] + O=C(O)c1ccc(-c2c[nH]c3ncc(-c4ccccc4)cc23)cc1C1CCCC1 [GSK650394] (first compound 0.002 µM, partner dose 0.16 µM) | 581% |
| CC1(C)NC(=O)N(c2ccc([N+](=O)[O-])c(C(F)(F)F)c2)C1=O [nilutamide] + C=CCn1c(=O)c2cnc(Nc3ccc(N4CCN(C)CC4)cc3)nc2n1-c1cccc(C(C)(C)O)n1 [MK1775] (first compound 1 µM, partner dose 0.02 µM) | 261% |
| Nc1cccc2c1CN(C1CCC(=O)NC1=O)C2=O (stereo not given) [lenalidomide] + CC1(C)NC(=O)N(c2ccc([N+](=O)[O-])c(C(F)(F)F)c2)C1=O [nilutamide] (first compound 1 µM, partner dose 1 µM) | 178% |
| CO[C@@H]1[C@H](N(C)C(=O)c2ccccc2)C[C@H]2O[C@]1(C)n1c3ccccc3c3c4c(c5c6ccccc6n2c5c31)C(=O)NC4 [Midostaurin] + NCC(=O)Nc1ccc(-n2nc(C(F)(F)F)cc2-c2ccc3c(ccc4ccccc43)c2)cc1 [OSU03012] (first compound 0.08 µM, partner dose 1 µM) | 181% |
| C=CCn1c(=O)c2cnc(Nc3ccc(N4CCN(C)CC4)cc3)nc2n1-c1cccc(C(C)(C)O)n1 + C[C@@H]1CCN(C(=O)CC#N)C[C@@H]1N(C)c1ncnc2[nH]ccc12 [CP690550] (first compound 0.02 µM, partner dose 1 µM) | 39.7% |
| C=CCNC1=C2C[C@@H](C)C[C@H](OC)[C@H](O)[C@@H](C)/C=C(\C)[C@H](OC(N)=O)[C@@H](OC)/C=C\C=C(/C)C(=O)NC(=CC1=O)C2=O [Tanespimycin] + C=CCn1c(=O)c2cnc(Nc3ccc(N4CCN(C)CC4)cc3)nc2n1-c1cccc(C(C)(C)O)n1 [MK1775] (first compound 0.002 µM, partner dose 0.02 µM) | 118% |
| CC(C)(C)c1cnc(CSc2cnc(NC(=O)C3CCNCC3)s2)o1 + Cc1cc(N2CCOCC2)cc2[nH]c(-c3c(NC[C@@H](O)c4cccc(Cl)c4)cc[nH]c3=O)nc12 [BMS536924] (first compound 0.01 µM, partner dose 0.2 µM) | 195% |
| Cc1ccc(NC(=O)c2cccc(N(C)C)c2)cc1NC(=O)c1ccc(O)cc1 + NCC(=O)Nc1ccc(-n2nc(C(F)(F)F)cc2-c2ccc3c(ccc4ccccc43)c2)cc1 [OSU03012] (first compound 2 µM, partner dose 1 µM) | 170% |
| OCc1c[nH]c2ccccc12 [Indole-3-carbinol] + O=C(CCCCCCC(=O)Nc1ccccc1)NO [vorinostat] (first compound 0.8 µM, partner dose 0.08 µM) | 53.4% |
| C=CCn1c(=O)c2cnc(Nc3ccc(N4CCN(C)CC4)cc3)nc2n1-c1cccc(C(C)(C)O)n1 + NCC(=O)Nc1ccc(-n2nc(C(F)(F)F)cc2-c2ccc3c(ccc4ccccc43)c2)cc1 [OSU03012] (first compound 0.02 µM, partner dose 1 µM) | 72.6% |
| COCC[n+]1c2c(n(Cc3cnccn3)c1C)C(=O)c1ccccc1C2=O + CN(NC(=O)CC(=O)NN(C)C(=S)c1ccccc1)C(=S)c1ccccc1 [STA4783] (first compound 0.0004 µM, partner dose 0.006 µM) | 1240% |
| Cn1nnc2c(C(N)=O)ncn2c1=O [temozolomide] + CC1(C)NC(=O)N(c2ccc([N+](=O)[O-])c(C(F)(F)F)c2)C1=O [nilutamide] (first compound 2 µM, partner dose 1 µM) | 123% |
| COCC[n+]1c2c(n(Cc3cnccn3)c1C)C(=O)c1ccccc1C2=O + O=C(CCCCCCC(=O)Nc1ccccc1)NO [vorinostat] (first compound 0.0004 µM, partner dose 0.08 µM) | 1150% |

Rewritten with bars between the fields: entries from further up.
Compound | cleaved PARP positive nuclei fraction
CO[C@@H]1[C@H](N(C)C(=O)c2ccccc2)C[C@H]2O[C@]1(C)n1c3ccccc3c3c4c(c5c6ccccc6n2c5c31)C(=O)NC4 [Midostaurin] + COc1cc2c(Oc3ccc4[nH]c(C)cc4c3F)ncnc2cc1OCCCN1CCCC1 [cediranib] (first compound 0.08 µM, partner dose 0.4 µM) | 179%
C=CCn1c(=O)c2cnc(Nc3ccc(N4CCN(C)CC4)cc3)nc2n1-c1cccc(C(C)(C)O)n1 + NCC(=O)Nc1ccc(-n2nc(C(F)(F)F)cc2-c2ccc3c(ccc4ccccc43)c2)cc1 [OSU03012] (first compound 0.02 µM, partner dose 1 µM) | 72.6%
